Reference: paper PMC4511450
No constants are given. Whether binding was seen depends on the method and setting. Binding seen in cells or lysates may run through a third protein. Some entries that bind do so weakly or less than the wild type.

Chains of the proteins cited; added tags and fusions are not shown. Residues count along the entry.
UniProt P21579: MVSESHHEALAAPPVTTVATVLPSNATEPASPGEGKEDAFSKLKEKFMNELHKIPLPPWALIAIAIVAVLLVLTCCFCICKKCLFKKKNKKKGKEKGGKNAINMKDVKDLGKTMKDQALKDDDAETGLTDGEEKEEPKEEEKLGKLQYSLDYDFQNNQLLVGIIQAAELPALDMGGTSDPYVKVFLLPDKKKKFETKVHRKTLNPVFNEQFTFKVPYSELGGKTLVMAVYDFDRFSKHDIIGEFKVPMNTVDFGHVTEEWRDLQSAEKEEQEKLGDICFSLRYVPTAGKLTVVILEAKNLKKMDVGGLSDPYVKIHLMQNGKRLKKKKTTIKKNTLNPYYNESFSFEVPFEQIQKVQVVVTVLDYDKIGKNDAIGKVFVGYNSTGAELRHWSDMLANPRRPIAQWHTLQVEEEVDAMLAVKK
UniProt P08592, residues 18-770: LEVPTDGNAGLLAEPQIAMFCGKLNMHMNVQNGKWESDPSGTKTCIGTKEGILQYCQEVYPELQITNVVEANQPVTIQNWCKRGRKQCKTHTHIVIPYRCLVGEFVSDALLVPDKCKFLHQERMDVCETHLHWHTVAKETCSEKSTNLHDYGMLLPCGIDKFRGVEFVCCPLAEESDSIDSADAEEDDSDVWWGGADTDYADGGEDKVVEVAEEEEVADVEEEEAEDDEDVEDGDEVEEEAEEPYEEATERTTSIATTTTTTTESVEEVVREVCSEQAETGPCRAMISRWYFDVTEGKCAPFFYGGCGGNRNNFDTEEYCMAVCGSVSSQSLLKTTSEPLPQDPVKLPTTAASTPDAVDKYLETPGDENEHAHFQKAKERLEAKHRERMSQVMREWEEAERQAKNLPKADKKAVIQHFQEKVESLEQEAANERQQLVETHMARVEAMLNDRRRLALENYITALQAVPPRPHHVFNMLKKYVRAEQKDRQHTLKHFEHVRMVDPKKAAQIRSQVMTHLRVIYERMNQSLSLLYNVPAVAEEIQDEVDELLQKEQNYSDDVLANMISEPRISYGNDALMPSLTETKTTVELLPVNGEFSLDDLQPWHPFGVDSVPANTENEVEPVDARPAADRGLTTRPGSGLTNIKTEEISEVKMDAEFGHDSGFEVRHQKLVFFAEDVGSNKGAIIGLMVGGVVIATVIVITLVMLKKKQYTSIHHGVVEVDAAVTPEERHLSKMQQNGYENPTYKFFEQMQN
UniProt P21707: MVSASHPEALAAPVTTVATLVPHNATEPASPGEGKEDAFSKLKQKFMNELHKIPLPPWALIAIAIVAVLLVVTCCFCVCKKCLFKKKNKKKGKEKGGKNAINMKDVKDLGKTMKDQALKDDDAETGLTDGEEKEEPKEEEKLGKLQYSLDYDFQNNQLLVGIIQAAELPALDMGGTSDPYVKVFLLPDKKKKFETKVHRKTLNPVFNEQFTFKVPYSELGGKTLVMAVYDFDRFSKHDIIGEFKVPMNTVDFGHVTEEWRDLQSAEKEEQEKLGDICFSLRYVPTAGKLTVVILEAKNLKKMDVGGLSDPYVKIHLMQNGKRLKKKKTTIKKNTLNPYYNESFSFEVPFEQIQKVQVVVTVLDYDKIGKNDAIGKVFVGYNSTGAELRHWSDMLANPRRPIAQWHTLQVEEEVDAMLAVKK

Columns and labels:
V5-tagged Syt-1 = V5-tagged Syt-1 (UniProt P21579); test: co-IP; CHO cells stably transfected with APP695, transiently transfected with V5-tagged Syt-1 or Syt-9; IP with anti-V5, control IgG; Western blot
[1] = molecular target: APP (endogenous, PC12 cells) (rat (endogenous in PC12)) (UniProt P08592); test: proximity ligation; in situ PLA (Duolink) in fixed naive PC12 cells with rabbit anti-APP (C66) and mouse anti-Syt-1; negative control with only one primary antibody
[2] = molecular target: GST-tagged E2 domain of APP (UniProt P05067); test: pull-down; immobilised GST-tagged APP ectodomain fragments exposed to lysates of CHO cells expressing V5-tagged Syt-1, -2 or -9; Western blot with anti-V5; only the target purified
[3] = molecular target: GST-tagged E1 domain of APP (UniProt P05067); test: as above

Substance: APP695 isoform stably expressed in CHO cells (from UniProt P05067-4 18-695)
- binding (V5-tagged Syt-1): binds

Substance: Syt-1 (endogenous, PC12 cells) (from UniProt P21707 1-421)
- binding [1]: binds

Substance: V5-tagged Syt-1 (from UniProt P21579 1-422)
- binding [2]: no binding
- binding [3]: no binding
